## Percent effect of library compounds

Sequences of proteins named here, by UniProt entry; tags and fusion partners are left off. Residues count along the entry.
UniProt P9WFT3, whole entry: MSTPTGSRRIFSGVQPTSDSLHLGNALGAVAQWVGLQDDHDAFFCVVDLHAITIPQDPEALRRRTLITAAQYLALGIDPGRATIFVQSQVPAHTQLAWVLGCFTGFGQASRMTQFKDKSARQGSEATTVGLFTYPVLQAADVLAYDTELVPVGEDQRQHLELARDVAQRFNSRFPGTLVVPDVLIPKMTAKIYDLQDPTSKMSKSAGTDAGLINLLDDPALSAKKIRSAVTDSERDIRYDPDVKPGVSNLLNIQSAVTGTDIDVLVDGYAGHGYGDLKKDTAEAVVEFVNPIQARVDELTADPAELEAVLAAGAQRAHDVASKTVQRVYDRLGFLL
UniProt I6X8D2, whole entry: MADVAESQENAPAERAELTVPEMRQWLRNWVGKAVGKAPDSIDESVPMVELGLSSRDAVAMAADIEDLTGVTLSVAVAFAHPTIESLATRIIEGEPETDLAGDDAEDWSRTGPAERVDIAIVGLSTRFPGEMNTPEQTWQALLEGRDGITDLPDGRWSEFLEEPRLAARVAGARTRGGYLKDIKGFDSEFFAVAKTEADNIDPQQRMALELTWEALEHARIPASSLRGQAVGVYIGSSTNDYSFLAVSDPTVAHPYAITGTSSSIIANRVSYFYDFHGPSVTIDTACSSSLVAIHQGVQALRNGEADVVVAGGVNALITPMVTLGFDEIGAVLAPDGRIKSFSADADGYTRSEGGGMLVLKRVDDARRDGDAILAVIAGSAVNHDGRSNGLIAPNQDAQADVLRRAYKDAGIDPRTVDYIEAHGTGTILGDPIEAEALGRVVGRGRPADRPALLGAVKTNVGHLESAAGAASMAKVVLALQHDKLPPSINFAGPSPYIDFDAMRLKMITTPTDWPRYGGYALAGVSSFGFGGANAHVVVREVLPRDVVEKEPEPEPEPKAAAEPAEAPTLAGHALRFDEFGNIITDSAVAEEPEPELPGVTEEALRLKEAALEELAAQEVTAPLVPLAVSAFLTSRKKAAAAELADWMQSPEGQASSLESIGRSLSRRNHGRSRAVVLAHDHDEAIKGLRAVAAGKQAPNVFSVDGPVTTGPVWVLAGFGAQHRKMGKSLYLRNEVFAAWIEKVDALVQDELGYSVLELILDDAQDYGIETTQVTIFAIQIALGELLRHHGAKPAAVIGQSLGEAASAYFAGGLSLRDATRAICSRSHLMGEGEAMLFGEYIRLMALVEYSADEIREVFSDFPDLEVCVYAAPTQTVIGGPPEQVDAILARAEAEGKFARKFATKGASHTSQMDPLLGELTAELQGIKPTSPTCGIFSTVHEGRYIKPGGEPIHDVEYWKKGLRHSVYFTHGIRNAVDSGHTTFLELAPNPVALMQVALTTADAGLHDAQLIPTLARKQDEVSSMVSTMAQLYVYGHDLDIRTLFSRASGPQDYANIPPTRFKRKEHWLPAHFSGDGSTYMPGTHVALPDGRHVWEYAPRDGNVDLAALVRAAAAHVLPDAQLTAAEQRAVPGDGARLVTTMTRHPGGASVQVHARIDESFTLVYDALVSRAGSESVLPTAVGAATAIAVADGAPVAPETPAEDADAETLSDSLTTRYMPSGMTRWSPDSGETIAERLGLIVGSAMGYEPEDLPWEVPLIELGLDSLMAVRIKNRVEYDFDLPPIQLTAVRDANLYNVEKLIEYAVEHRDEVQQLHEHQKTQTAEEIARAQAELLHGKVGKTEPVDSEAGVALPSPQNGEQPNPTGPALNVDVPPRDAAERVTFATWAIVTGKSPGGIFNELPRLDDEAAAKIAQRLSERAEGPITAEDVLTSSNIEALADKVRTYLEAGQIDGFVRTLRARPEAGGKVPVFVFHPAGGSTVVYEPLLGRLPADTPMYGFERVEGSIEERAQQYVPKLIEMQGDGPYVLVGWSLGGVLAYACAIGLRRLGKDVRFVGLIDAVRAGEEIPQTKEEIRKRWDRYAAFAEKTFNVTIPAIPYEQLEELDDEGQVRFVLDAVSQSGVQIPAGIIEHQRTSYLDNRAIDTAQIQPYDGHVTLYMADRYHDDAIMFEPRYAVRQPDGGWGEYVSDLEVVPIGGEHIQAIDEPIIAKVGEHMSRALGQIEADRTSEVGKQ
UniProt A4I591, 1-473: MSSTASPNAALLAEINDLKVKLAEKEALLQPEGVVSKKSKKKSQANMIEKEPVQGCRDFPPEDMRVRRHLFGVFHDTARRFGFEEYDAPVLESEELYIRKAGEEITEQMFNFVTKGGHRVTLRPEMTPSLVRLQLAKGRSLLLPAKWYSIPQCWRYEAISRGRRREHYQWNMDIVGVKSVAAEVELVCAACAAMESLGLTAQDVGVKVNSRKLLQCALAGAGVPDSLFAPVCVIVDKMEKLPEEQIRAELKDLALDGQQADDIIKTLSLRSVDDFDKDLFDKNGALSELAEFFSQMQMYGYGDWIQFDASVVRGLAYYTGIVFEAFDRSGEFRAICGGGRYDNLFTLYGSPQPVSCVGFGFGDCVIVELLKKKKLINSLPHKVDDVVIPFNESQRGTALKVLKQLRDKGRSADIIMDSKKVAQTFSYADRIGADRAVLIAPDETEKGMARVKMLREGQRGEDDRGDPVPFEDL
UniProt Q8IDJ8, 1-583: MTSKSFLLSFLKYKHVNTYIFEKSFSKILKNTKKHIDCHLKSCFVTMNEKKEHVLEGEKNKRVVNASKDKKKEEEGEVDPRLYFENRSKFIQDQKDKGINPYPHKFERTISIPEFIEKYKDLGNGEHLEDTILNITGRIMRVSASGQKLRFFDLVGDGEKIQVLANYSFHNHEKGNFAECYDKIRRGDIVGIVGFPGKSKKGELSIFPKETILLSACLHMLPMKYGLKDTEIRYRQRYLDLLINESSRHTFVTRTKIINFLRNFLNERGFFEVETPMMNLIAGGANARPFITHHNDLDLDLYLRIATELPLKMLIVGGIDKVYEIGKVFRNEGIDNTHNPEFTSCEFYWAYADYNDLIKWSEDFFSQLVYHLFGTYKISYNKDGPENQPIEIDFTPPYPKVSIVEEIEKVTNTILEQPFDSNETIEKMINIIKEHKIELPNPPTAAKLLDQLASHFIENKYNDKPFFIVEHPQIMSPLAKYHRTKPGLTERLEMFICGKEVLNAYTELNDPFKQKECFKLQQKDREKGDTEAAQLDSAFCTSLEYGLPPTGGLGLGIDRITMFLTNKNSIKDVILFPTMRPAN

MtTrpRS: 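Enzyme assay of tryptophanyl-tRNA synthetase; the read-out is not stated. Target: Tryptophan-tRNA ligase, Mycobacterium tuberculosis (UniProt P9WFT3). Compounds at 10 µM. Direction is not recorded; retested compounds ran higher, which suggests that high means inhibition. Size under these conditions: about 65,000 compounds, about 64 of them at 50% or above in at least one test.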
Pks13 thioesterase: 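Enzyme assay of the thioesterase domain of polyketide synthase 13; the read-out is not stated. Target: Polyketide synthase Pks13, Mycobacterium tuberculosis (UniProt I6X8D2). Tested at 30 µM. The record gives no direction; the compounds picked for IC50 retests had high values, so higher reads as stronger inhibition. Size under these conditions: about 67,000 compounds, about 300 of them at 50% or above in at least one test.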
LiHisRS: 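Enzyme assay of histidyl-tRNA synthetase; the read-out is not stated. Target: Histidine-tRNA ligase, Leishmania infantum (UniProt A4I591). Tested at 30 µM. Higher reads as stronger inhibition (inferred: compounds with an IC50 in retests scored well above the rest). The assay is labelled LdHisRS but filed under L. infantum. Of about 69,000 compounds tested this way, about 410 (0.6%) reached 50% or more in at least one test.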
PfKRS1: 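Lysine-tRNA ligase, Plasmodium falciparum 3D7 (UniProt Q8IDJ8). Enzyme assay of the cytosolic lysyl-tRNA synthetase in 384-well plates, read by luminescence. Concentration: 30 µM. Direction is inferred from only a few compounds that gave an IC50; most scored high, so higher reads as stronger inhibition. About 69,000 compounds were tested under these conditions; 0.071% (about 49) showed 50% or more at least once.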

Each number is a percent effect as filed. How 0% and 100% were set is not recorded. Most values in the screen are low, and negative values occur. The compounds are a random part of those screened.

SMILES,MtTrpRS,Pks13 thioesterase,LiHisRS,PfKRS1
Fc1ccc([C@@H]2COC[C@H]2NCc2cccc(F)c2)cc1,-5.21%,14.75%,17.02%,0.4005%
Cc1nc(CNCc2c(C)nn(C)c2N2CCOCC2)cs1,-2.516%,-8.145%,21.6%,-4.16%
O=C1NCCCc2[nH]c(-c3nc(C4CCCCC4)no3)nc21,2.949%,-12.13%,15.05%,0.632%
CCc1noc(C(C)N2CCN(Cc3noc(C4CC4)n3)CC2)n1 (centres undefined),1.525%,-8.063%,15.56%,4.411%
COc1cc(NC(=O)C2CC(=O)N(c3cccc(F)c3)C2)ncn1 (centres undefined),-1.596%,-15.97%,15.65%,0.7583%
CCc1cnc(CN(C(C)=O)C2CCN(CCS(C)(=O)=O)C2)o1 (centres undefined),20.66%,-20.5%,16.35%,-1.302%
CC(C)S(=O)(=O)N1C[C@@H](O)[C@H](N(C)Cc2ccc(F)cc2)C1,1.432%,-9.558%,4.317%,-0.242%
COc1cccc(COCC(=O)N2CCCC(c3ccn[nH]3)C2)c1 (centres undefined),15.25%,-23.3%,11.4%,-0.1341%
CCOCCn1c(=O)[nH]c2cc(C(=O)N(C)Cc3cnn(C)c3)ccc21,-0.8244%,6.728%,5.66%,1.988%
O=C(c1[nH]nc(C2CC2)c1Cl)N1CCN(C2CC2)CC1,-4.644%,-48.63%,17.14%,3.266%
Cc1cc(F)ccc1OC1(C(=O)O)CCN(Cc2cccnc2N)CC1,1.243%,-13.57%,22.33%,7.386%
O=S(=O)(C1CC1)N1CCC2(CCN(Cc3nccs3)CC2)CC1,3.111%,-27.06%,14%,0.3314%
COc1cc(CNC(=O)COC2CCCCC2)ccc1O,-1.943%,-41.83%,14.51%,1.409%
Cc1ccccc1C(=O)NC[C@@H]1CCN(C(=O)C2(O)CCCC2)C[C@H]1O,-3.849%,-1.863%,-2.222%,-2.792%
O=C(CC1CCCO1)NCc1ccccc1Cn1cncn1 (centres undefined),0.8772%,-6.394%,22.73%,3.232%
O=C([C@H]1C[C@@H]2CCN(C3CCOCC3)C[C@H]2O1)N1CCCC1,-5.898%,-6.643%,5.556%,-1.273%
CC(C)N(C)CC(=O)NCCc1nc(C(F)(F)F)cs1,-1.33%,27.4%,8.108%,1.896%
O=C(c1ccc2c(c1)OCCCO2)N1CCCC(n2ccnc2)C1 (centres undefined),1.406%,-11.19%,7.826%,2.106%
O=C(NCc1nncn1C1CCCCC1)C1CNCCO1 (centres undefined),-0.8542%,-13.04%,11.48%,1.21%
CCc1oc2ccc(NS(C)(=O)=O)cc2c1C(=O)OC,2.083%,-11.61%,2.151%,-0.02275%
CN1CC(=O)N(c2cccc(F)c2)CC12CCN(Cc1ccco1)C2 (centres undefined),0.3984%,-30.27%,29.2%,-0.7933%
COc1ccc(CN2CC(=O)N(c3ccc(C)cc3)CC2C)cc1O (centres undefined),2.346%,-20.12%,11.11%,7.326%
O=C(NC[C@H]1OC[C@@H]2CN(Cc3ccco3)CC[C@@H]21)c1cccnc1,0.6478%,1.125%,3.191%,-3.614%
C/N=C1\c2cc3cc(OC)ccc3n2CCN1C,-2.09%,3.423%,-10.87%,0.1585%
CC(Cn1cccn1)NC(=O)NCCCN1CCc2ccccc2C1 (centres undefined),2.618%,-5.325%,0%,-1.972%
CC1c2ncc(CNC(=O)C3CC3)n2CCN1Cc1nccs1 (centres undefined),-7.713%,-3.693%,18.06%,1.462%
CCCc1nc(CNC(=O)Cc2csc(C)n2)cs1,-0.2564%,-0.9057%,17.2%,1.467%
COc1ccc(S(=O)(=O)N2CCC(Cn3ccnc3)CC2)cc1,0.25%,-42.91%,21.51%,5.21%
COc1cc(N2C[C@@H]3COC[C@]3(COc3ncccc3F)C2)ncn1,1.757%,-5.965%,11.93%,0.9499%
O=C(c1ccncc1)N1CCCn2nnc(Cn3cccn3)c2C1,-1.984%,-30.49%,26.32%,1.597%
CCCn1ncc(C(=O)NCc2n[nH]c3c2CCCCC3)c1C,-0.7236%,-31.17%,14.17%,2.714%
Cn1nc(Br)nc1Sc1ccccc1NC(=O)C1CC1,5.089%,-6.82%,8.219%,3.958%
Cc1nc(C2CCCN(C(=O)CO)C2)cc(N2CCOCC2)n1 (centres undefined),-1.42%,-10.97%,15.24%,5.296%
CCn1cc(CN(C)S(=O)(=O)c2cc(Cl)ccc2Cl)cn1,5.427%,-34.94%,13.59%,2.671%
Cc1nn(C)c2cnn(CC(=O)NCCc3ccccc3)c12,1.608%,-19.92%,15.53%,0.9213%
CCc1nc2n(n1)CC(NCc1noc(-c3ccc(C)cc3)n1)CC2 (centres undefined),-3.742%,1.881%,8.036%,1.276%
Oc1cccc(CNCc2ccc(-n3cncn3)nc2)c1,3.129%,-29.91%,19.47%,8.727%
Cc1nc(-c2ccsc2)ccc1C(=O)NCCC1CCCO1 (centres undefined),2.516%,48.4%,8.8%,10.93%
CC(=O)N1CCCC(C(=O)NCCc2ccc(F)c(Br)c2)C1 (centres undefined),-0.7651%,10.82%,8.434%,-2.23%
Cc1ccc(-c2[nH][nH]c(=O)c2CCN)cc1,-6.828%,-19.95%,0%,-2.591%
O=C(CC1CCCCC1)N1CCN(C(=O)NCc2ccccn2)CC1,-5.082%,-15.9%,10.67%,-2.128%
O=C(c1cnc(O)cn1)N(Cc1ccsc1)CC1CCCO1 (centres undefined),2.709%,-10.35%,14.4%,-3.787%

The first 4 entries again:

SMILES,MtTrpRS,Pks13 thioesterase,LiHisRS,PfKRS1
Fc1ccc([C@@H]2COC[C@H]2NCc2cccc(F)c2)cc1,-5.21%,14.75%,17.02%,0.4005%
Cc1nc(CNCc2c(C)nn(C)c2N2CCOCC2)cs1,-2.516%,-8.145%,21.6%,-4.16%
O=C1NCCCc2[nH]c(-c3nc(C4CCCCC4)no3)nc21,2.949%,-12.13%,15.05%,0.632%
CCc1noc(C(C)N2CCN(Cc3noc(C4CC4)n3)CC2)n1 (centres undefined),1.525%,-8.063%,15.56%,4.411%

The values are deposited in ChEMBL (CHEMBL3988442, “University of Dundee, Small-Polar-MMV Screening Library” (2021)).